Experimental data: PubChem BioAssay AID686943 (Drosophila RNAi Screening Center, 2013)
The deposit covers about 23,000 reagents; shown is a random part of those that have a named target and a result. 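Extra replicates exist only for a retested subset of genes; insulin dose and duration not given; both raised and lowered dpERK matter.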 A plus sign joins genes that one reagent is predicted to hit. Not all columns of the deposit are shown. Not stated in the record: the amount of reagent, the time to read-out.

Purpose: 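Search across the genome for regulators of signalling from receptor tyrosine kinase to ERK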 (primary screen)
Cell system: Drosophila S2R+ haemocyte-like cells expressing YFP-tagged ERK (Rolled)
Reagents: long dsRNA against Drosophila genes
Treatment: insulin stimulation versus unstimulated cells; dose and duration not given
Measurement: 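Antibody staining for doubly phosphorylated ERK divided by ERK-YFP signal, as plate z-scores, in insulin-treated and untreated cells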
Scale: replicate 1, z-score of dpERK with insulin: higher = more active ERK per ERK-YFP after insulin

replicate 1, z-score of dpERK with insulin, by target and reagent
Mi-2: DRSC11222 0.2
CG42594: DRSC18053 -4.21; DRSC18408 0.47
alpha-Catr: DRSC04669 1.12
Gba1b: DRSC21531 0.06
Cortactin: DRSC16612 -0.37
ftz: DRSC12626 -0.84
sba: DRSC13643 -0.72; DRSC17050 0.91
Mlc2: DRSC16741 0.2
CG7214: DRSC03028 0.52; DRSC21869 -0.17
cib: DRSC18660 0.55
Adgf-A: DRSC10566 -0.07

6 entries already listed, arranged by “replicate 1, z-score of dpERK with insulin”, ascending:
target	dsRNA	replicate 1, z-score of dpERK with insulin
CG42594	DRSC18053	-4.21
Cortactin	DRSC16612	-0.37
Gba1b	DRSC21531	0.06
Mi-2	DRSC11222	0.2
CG42594	DRSC18408	0.47
alpha-Catr	DRSC04669	1.12

Next records follow:
replicate 1, z-score of dpERK with insulin, by target and reagent
Or42b: DRSC04913 0.11
CG12395: DRSC19453 -0.22
Vha100-3: DRSC05760 -0.04
Hmg-2: DRSC04554 -2.09
CG14830: DRSC08876 0.07
CG8642: DRSC07228 0.04
pwn: DRSC06035 -0.19
CG14020: DRSC02350 0.02
Cyp304a1: DRSC16623 0.39
CG6878: DRSC10737 -0.33
AANATL6: DRSC06773 0.69
CG30109: DRSC05675 0.04
Sec15: DRSC16179 -1.47
CG17267: DRSC15207 0
CG12728: DRSC17883 0.46
muc: DRSC02832 0.1; DRSC21940 0.94
CG3108: DRSC18280 0.63
5-HT7: DRSC12635 -0.14
NimB5: DRSC01885 -0.89
beat-IIa: DRSC14813 0.68; DRSC14814 0.78
CG9897 + asRNA:CR42742: DRSC04595 0.39
Nph: DRSC16342 0.37
CG15406: DRSC00420 0.38
